According to the supplement of paper PMC11006884:
The list shows a part of the results, in another mix than the full data. The data scatter; read single values as rough.

Protein sequences, listed by entry. Tags and fused reporters are not part of them. Lines headed by an entry give the natural chain unless they say otherwise; changes in a name come on top.
UniProt P62633: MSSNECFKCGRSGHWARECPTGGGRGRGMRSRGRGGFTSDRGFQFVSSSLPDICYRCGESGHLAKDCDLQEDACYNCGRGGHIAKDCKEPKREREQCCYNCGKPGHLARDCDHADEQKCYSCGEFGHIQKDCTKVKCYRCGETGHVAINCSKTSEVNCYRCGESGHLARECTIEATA
UniProt P83369: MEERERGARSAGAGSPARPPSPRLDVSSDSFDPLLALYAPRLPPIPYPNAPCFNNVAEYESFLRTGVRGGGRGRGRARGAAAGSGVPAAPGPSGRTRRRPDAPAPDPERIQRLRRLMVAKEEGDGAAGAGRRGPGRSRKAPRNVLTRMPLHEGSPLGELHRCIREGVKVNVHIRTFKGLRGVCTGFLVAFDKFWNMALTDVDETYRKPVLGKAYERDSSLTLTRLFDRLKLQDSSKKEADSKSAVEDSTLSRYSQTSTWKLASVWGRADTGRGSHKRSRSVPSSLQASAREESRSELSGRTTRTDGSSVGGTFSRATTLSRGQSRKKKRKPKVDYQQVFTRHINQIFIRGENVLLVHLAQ
UniProt P62316, whole entry, looked up: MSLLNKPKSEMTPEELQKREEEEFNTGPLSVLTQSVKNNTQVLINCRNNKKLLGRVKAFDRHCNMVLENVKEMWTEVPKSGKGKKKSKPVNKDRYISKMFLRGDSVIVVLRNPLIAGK
UniProt P67775, whole entry, looked up: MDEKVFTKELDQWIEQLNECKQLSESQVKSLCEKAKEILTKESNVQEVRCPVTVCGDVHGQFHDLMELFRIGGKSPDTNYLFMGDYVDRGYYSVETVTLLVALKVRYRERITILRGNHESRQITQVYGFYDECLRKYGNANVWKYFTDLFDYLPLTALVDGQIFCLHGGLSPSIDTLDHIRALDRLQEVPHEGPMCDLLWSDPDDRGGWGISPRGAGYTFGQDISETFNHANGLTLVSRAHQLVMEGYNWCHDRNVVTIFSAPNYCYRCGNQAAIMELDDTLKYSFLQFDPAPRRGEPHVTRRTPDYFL
UniProt P78527, whole entry, looked up: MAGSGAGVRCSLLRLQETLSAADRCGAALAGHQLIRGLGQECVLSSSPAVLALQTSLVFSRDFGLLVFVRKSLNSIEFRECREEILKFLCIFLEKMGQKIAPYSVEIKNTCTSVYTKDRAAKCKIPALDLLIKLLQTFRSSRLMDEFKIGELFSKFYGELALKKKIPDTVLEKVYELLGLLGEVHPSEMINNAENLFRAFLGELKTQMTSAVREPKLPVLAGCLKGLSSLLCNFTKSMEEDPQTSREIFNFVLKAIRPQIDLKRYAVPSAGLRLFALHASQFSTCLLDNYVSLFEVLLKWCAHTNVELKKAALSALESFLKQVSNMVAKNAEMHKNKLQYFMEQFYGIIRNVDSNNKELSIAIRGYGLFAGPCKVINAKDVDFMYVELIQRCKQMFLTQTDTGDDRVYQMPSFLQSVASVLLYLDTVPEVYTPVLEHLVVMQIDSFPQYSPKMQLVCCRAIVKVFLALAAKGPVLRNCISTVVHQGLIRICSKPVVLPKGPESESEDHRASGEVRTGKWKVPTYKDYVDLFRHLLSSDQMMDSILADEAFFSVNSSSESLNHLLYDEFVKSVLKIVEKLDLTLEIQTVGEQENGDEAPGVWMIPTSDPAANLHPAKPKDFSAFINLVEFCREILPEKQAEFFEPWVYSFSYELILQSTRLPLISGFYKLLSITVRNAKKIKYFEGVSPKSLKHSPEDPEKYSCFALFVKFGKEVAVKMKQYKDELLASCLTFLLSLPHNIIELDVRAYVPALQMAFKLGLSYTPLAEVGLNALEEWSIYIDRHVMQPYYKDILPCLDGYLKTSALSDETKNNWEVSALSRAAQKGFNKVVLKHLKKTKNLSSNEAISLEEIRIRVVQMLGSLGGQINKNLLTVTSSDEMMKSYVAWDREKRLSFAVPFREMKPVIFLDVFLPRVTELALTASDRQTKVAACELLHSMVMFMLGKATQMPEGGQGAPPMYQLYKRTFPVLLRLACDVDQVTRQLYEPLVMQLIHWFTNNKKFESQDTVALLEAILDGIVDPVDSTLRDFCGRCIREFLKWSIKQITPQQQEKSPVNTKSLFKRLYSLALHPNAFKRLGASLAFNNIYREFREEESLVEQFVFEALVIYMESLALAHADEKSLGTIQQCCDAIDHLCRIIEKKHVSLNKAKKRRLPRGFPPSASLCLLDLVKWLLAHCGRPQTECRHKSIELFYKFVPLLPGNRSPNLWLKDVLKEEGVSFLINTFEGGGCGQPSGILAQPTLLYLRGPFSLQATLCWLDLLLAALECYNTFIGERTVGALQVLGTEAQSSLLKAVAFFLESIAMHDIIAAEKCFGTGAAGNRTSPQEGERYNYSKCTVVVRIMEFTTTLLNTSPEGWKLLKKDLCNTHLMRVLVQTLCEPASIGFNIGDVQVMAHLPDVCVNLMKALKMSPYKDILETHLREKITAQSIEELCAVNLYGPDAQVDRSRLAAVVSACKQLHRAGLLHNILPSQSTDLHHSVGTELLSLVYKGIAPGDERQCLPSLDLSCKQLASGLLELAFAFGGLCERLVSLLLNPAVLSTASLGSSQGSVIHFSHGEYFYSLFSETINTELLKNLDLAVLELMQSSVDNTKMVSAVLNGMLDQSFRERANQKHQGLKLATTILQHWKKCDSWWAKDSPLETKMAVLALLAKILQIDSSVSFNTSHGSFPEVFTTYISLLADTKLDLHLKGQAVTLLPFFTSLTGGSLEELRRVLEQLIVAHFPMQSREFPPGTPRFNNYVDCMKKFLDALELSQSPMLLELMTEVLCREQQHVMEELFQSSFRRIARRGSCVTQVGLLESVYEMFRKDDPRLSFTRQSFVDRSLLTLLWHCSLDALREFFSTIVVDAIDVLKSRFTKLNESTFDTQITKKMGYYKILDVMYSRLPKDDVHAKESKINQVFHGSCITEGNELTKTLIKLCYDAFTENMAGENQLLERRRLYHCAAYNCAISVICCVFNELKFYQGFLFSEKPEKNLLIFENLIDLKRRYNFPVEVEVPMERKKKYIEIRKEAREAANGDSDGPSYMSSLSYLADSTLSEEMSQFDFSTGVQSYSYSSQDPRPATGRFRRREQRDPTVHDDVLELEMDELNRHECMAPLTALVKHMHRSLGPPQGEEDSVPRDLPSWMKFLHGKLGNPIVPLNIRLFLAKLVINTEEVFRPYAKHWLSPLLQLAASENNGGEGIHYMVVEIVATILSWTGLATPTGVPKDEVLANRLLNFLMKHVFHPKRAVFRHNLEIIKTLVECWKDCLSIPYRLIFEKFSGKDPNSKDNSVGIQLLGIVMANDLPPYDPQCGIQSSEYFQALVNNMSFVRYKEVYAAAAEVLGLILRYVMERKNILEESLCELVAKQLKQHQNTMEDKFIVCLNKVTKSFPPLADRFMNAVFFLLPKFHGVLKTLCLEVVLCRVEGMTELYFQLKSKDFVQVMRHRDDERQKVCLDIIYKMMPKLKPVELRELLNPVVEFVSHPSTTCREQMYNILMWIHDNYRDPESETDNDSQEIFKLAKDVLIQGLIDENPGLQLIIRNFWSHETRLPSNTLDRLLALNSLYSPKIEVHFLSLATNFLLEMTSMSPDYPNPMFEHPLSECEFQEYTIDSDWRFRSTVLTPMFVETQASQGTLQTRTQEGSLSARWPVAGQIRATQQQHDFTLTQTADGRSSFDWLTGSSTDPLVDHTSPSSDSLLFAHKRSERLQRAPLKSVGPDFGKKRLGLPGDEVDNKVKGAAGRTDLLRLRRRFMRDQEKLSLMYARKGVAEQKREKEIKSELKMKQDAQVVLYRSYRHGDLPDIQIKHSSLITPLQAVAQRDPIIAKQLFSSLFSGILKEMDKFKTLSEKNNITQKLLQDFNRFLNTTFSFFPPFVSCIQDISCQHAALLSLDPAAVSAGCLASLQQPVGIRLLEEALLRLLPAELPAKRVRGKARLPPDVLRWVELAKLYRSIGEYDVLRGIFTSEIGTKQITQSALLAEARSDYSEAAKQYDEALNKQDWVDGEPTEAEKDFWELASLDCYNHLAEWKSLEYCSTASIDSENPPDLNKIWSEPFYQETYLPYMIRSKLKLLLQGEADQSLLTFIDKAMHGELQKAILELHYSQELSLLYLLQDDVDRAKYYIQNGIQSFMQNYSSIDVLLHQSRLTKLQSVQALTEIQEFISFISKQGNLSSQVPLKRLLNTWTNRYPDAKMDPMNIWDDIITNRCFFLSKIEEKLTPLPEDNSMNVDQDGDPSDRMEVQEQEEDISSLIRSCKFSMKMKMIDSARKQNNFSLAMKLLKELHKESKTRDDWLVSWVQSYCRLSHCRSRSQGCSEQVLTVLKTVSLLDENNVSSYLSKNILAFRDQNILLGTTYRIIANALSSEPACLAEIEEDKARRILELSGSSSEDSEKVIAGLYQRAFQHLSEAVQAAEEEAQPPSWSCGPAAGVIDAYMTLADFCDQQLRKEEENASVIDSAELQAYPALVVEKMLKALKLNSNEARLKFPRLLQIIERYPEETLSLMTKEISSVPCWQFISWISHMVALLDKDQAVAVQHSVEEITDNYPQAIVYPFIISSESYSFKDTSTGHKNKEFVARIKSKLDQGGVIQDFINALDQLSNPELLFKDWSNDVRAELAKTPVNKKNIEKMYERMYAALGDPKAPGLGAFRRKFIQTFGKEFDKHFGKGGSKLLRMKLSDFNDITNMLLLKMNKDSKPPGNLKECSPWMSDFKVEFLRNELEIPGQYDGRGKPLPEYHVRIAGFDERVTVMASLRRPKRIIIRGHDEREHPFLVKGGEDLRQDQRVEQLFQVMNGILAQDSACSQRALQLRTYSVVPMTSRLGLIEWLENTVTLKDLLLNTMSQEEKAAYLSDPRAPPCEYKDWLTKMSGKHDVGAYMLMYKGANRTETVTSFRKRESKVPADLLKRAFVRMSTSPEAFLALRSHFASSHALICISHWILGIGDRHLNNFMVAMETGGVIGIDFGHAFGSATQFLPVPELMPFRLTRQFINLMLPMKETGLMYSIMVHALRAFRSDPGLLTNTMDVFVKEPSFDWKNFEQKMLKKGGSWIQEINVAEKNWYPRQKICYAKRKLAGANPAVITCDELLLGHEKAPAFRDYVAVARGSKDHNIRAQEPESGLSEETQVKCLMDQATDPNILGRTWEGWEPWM
UniProt P67936, whole entry, looked up: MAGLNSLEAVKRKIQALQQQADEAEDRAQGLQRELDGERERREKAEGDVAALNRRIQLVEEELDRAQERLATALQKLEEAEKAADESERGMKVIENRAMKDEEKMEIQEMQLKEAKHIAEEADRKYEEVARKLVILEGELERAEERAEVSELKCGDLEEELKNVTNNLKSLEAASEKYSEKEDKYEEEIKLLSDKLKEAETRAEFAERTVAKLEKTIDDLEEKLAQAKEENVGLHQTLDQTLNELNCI

Compound: COC(=O)/C=C/c1ccccc1 [methyl cinnamate]
Assay: log2 ratio of iodoacetamide-alkyne labeling of the cysteine site, DMSO over compound (competition); higher = stronger covalent engagement of the cysteine by the compound, active = 1 or more
Conditions: 500 µM; treatment time 1 h; system: HEK293T cell lysate
Summary of the method: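 HEK293T lysate (2 mg/mL) was incubated with electrophile (500 µM) or vehicle for 1 h at ambient temperature and then with iodoacetamide alkyne for 1 h. Labelled proteins were clicked to sCIP-TMT reagents, pooled, digested, enriched on streptavidin and measured by Orbitrap Eclipse LC-MS/MS with FAIMS, with FragPipe quantification. The per-cysteine log2 competition ratio is mean control-channel reporter intensity over mean compound-channel reporter intensity. Across three replicates with duplicate channels, cysteines quantified in only one replicate were excluded.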

Row | Target | log2 ratio of iodoacetamide-alkyne labeling
1 | MRPS21 C87 (UniProt P82921) | inactive: 0.015
2 | CNBP C97 (UniProt P62633) | inactive: 0.121
3 | RPS21 C56 (UniProt P63220) | inactive: 0.615
4 | LSM11 C52 (UniProt P83369) | inactive: 0.259
5 | MRPS11 C186 (UniProt P82912) | inactive: -0.0493
6 | UniProt P62316_C46 | inactive: 0.28
7 | PPP2CA C269 (UniProt P67775) | inactive: 0.205
8 | UniProt P62851_C59 | inactive: 0.455
9 | UniProt P78527_C223 | inactive: 0.000955
10 | TPM4 C154 (UniProt P67936) | inactive: 0.469
11 | UniProt Q00341_C855 | inactive: 0.379
12 | H3F3A C111 (UniProt P84243) | inactive: -0.157

Reprinted from the results shown (2 entries):
Row | Target | log2 ratio of iodoacetamide-alkyne labeling
3 | RPS21 C56 (UniProt P63220) | inactive: 0.615
4 | LSM11 C52 (UniProt P83369) | inactive: 0.259
